Article PMC5079582

Tests used:
[1] = target: GFP-DSP4, in transgenic Arabidopsis (Arabidopsis); assay: co-IP; protein extracts of F1 Arabidopsis harboring two transgenes (GFP-DSP1/MYC-CPSF73-I, GFP-DSP1/MYC-DSP4, GFP-DSP4/MYC-CPSF73-I); IP with anti-GFP antibodies, western blot
[2] = target: GFP-DSP4, expressed in N. benthamiana (Arabidopsis); assay: co-IP; in vitro translated DSP3-MYC added to N. benthamiana protein extracts containing GFP-tagged proteins or GFP; western blot (paper: Co-IP/pull down)

binding [1]	binding [2]	Binder
no binding		MYC-CPSF73-I, in transgenic Arabidopsis (enzyme, UniProt Q9C952 1-693) MASSSTSLKRREQPISRDGDQLIVTPLGAGSEVGRSCVYMSFRGKNILFDCGIHPAYSGMAALPYFDEIDPSSIDVLLITHFHIDHAASLPYFLEKTTFNGRVFMTHATKAIYKLLLTDYVKVSKVSVEDMLFDEQDINKSMDKIEVIDFHQTVEVNGIKFWCYTAGHVLGAAMFMVDIAGVRILYTGDYSREEDRHLRAAELPQFSPDICIIESTSGVQLHQSRHIREKRFTDVIHSTVAQGGRVLIPAFALGRAQELLLILDEYWANHPDLHNIPIYYASPLAKKCMAVYQTYILSMNDRIRNQFANSNPFVFKHISPLNSIDDFNDVGPSVVMATPGGLQSGLSRQLFDSWCSDKKNACIIPGYMVEGTLAKTIINEPKEVTLMNGLTAPLNMQVHYISFSAHADYAQTSTFLKELMPPNIILVHGEANEMMRLKQKLLTEFPDGNTKIMTPKNCESVEMYFNSEKLAKTIGRLAEKTPDVGDTVSGILVKKGFTYQIMAPDELHVFSQLSTATVTQRITIPFVGAFGVIKHRLEKIFESVEFSTDEESGLPALKVHERVTVKQESEKHISLQWSSDPISDMVSDSIVALILNISREVPKIVMEEEDAVKSEEENGKKVEKVIYALLVSLFGDVKLGENGKLVIRVDGNVAQLDKESGEVESEHSGLKERVRVAFERIQSAVKPIPLSAS
	no binding	DSP3-MYC, in vitro translated (protein, UniProt Q8VZA0 1-936) MTSSMEEDDSISPESISLDTLASIRSLIINADTSDSVISSVFDFLTGLLSRGNSAILHHVLKLLSDLAFRRKELAPQIFDSILSNLLRLHNTVAEASHERAAVESLAVLASLSERTPSIAAALSKIDDEVFASICLGAPISSRLWLLRNADRFNVPSSVLFTLFLGFSKDPYPYIRKVALDGLINICNAGDFNHTHAVEGCYTRAVELLSDAEDSVRSSAVRAVSVWGKVMIASKEEEMNRRDCTDAVFLQLCSVVRDMSVDVRVEVFKAFGIIGTASESIILQTLSKKVLGAGKGKKPQNLLSNGSADVSSAAGVYIHGFEDEFYEVREAAVDSFHSLSVNSIKFPDEAVYLLMDMLYDDYMVVRLKALKALHHIADLGNLKIQETYMPAFLDAIVDTSENIRVEARNILKLAKLPDLKLVNKCIDGVLKSLEMYPQDEPDILSALFHFGQNHTNFLVSMVKRFSEKLGTASGSKAEFNSRQLSASLTLIISAPLSNKQSITSIPPLAFSYSLAMLGKFSSGLHDMMDQDMLLAYLTHCAILSSSSGTEFNKGDVFFHAYRDSNADLAGNPVLLPGKDIPAESKYMACKAELEIGNQALKFVNHILLKIKAAWLLSQSGCSKEALRALRACKQELATLTADSSISKGTLDFICQYVHVIELLVQVWPHFNYSRHISTCSSVEVELLMEEVEIKLMEIRCRFTGLSTEESLVLELVIFGCLLRLYKFEICCRLSCMEKLSSTISQLELHHEQQCTKPSDFLTETKKSLEEFGSSDDINSCRLLDLIKIFKCFSPEQFTFSVNLQCVSAEVEVPGNGPYSPISFVPGLPVAIPCEITLLNVPRDTCLWLRISRNDETCQFVYLDPNLYNGNGREKRFMFTAVTYMTPRAVVFTLRVSIGIECLFEDICYRKQRHGPKHPVAYLCKEREIHLSLVSRT

These are yes or no findings as the source states them, for the method shown. Binding seen in cells or lysates may run through a third protein. Tags and fused reporters may be left off the sequences shown.
